# Screening data, single-dose tests

Protein sequences, listed by entry. Tags and fused reporters are not part of them. Residues count along the entry.
UniProt Q8IDJ8, 1-583: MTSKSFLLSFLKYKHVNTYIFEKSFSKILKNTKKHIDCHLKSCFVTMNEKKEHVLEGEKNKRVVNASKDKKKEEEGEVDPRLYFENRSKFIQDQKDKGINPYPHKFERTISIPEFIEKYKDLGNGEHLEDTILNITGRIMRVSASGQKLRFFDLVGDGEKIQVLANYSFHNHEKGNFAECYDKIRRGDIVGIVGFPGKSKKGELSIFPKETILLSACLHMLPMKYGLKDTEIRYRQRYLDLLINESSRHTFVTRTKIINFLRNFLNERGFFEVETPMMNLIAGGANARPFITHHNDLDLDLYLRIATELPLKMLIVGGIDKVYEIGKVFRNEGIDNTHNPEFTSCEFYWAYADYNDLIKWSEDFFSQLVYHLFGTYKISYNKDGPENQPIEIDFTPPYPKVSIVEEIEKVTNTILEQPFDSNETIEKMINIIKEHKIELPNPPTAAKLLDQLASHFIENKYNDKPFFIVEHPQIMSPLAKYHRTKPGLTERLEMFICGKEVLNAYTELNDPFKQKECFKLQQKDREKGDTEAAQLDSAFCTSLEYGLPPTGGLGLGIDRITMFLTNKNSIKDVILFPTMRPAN

Source: ChEMBL document CHEMBL3988442, “University of Dundee, Small-Polar-MMV Screening Library” (2021).

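Enzyme assay of the cytosolic lysyl-tRNA synthetase in 384-well plates, read by luminescence. Target: Lysine-tRNA ligase, Plasmodium falciparum 3D7 (UniProt Q8IDJ8). Concentration: 30 µM. Direction is inferred from only a few compounds that gave an IC50; most scored high, so higher reads as stronger inhibition. About 69,000 compounds were tested under these conditions; 0.071% (about 49) showed 50% or more at least once.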

The filed quantity is “Percent Effect” (%). How 0% and 100% were set is not recorded. Most values in the screen are low, and negative values occur. Compounds were drawn at random from those tested, without regard to their results.

Compound,effect
COCCN1C(=O)[C@]2(CC[C@@H]3CN(S(=O)(=O)CC(C)C)C[C@@H]32)N=C1C,-4.226
CN(C)S(=O)(=O)c1ccc(-c2nc(C#N)c(NC(C)(C)C)o2)o1,13.49
CCn1cc(S(=O)(=O)N2CCC(C3CCCCN(C)C3=O)CC2)c(C)n1 (stereo unspecified),-2.249
Fc1cccc(CN2CCC(c3noc(-c4ccccn4)n3)CC2)c1F,-0.5187
CCn1ncc2c1CCCC2NCc1csc(C(C)C)n1 (stereo unspecified),-1.143
CC(C)c1nc2cc(NC(=O)Cn3ccc(=O)[nH]c3=O)ccc2o1,0.4363
CC(C)Oc1ccccc1CNC(=O)c1[nH]ncc1Br,8.368
COCCNC(=O)c1cc(-c2cc[nH]n2)n2ccccc12,-3.041
Cc1cc(NC(=O)NCC(c2ccsc2)N(C)C)n(C)n1 (stereo unspecified),2.867
CCOC(=O)C1CCN(C(=O)CN2CCCC2Cc2ccccc2)CC1 (stereo unspecified),4.142
CCOc1ccc(CNCc2ccc(C(=O)NC)cc2)cc1OCC,6.253
Cc1[nH]c2c(C)ccc(C)c2c1CC(=O)NCc1csc(N(C)C)n1,0.3554
Cc1cc(F)c(S(=O)(=O)NCC(C)(C)N)cc1F,1.39
CCCSc1ncc(CN2CCN(C)C(=O)C2C)cn1 (stereo unspecified),-0.1701
COc1ccc(C(=O)CCC(=O)NCc2ncc(C)s2)cc1F,2.413
O=C(CC1COCCN1)N1CCC(N2CCc3ccccc3C2)CC1 (stereo unspecified),24.92
O=C(C1CC(=O)N(c2ccccc2Br)C1)N1CCC2(CC1)OCCO2 (stereo unspecified),-2.425
COCCC1(CNC(=O)NC2CCCN(C)C2)CC1 (stereo unspecified),-0.5682
CCc1nnc2n1CCN(Cc1ccc3c(c1)OCCO3)C2,2.292
OCC1COCCN(c2ncccc2C(F)(F)F)C1 (stereo unspecified),1.773
CCc1nc(C2CCCN(C(=O)c3cccc(C(N)=O)c3)C2)no1 (stereo unspecified),2.669
O=C(c1cccn1-c1ccc2c(c1)OCCO2)N1CCCC1,-0.6916
Cc1n[nH]c(C2CN(CC(=O)NCc3sccc3C)CCO2)n1 (stereo unspecified),3.398
Clc1nc2ccccn2c1CNCC1CN(C2CC2)CCO1 (stereo unspecified),0.07624
Cc1ccc(CC(=O)N2CCc3nnc(N(C)C)cc3C2)s1,-0.7965
Cc1nc(C)c(C)c(NCc2cnn3cccnc23)n1,3.395
Cc1cc(C)c(CNC(=O)N2CCC(N3CCNC3=O)CC2)c(C)c1,-2.07
CC(C)Oc1ccc2c(NC(=O)CN(C)C)nn(CC(F)(F)F)c2c1,3.527
Cc1nc(C)n(CC2CCCN2CCC(=O)N2CCCCC2)n1 (stereo unspecified),0.8534
CC(C)(C)[S+]([O-])CCNC(=O)c1csc(NC2CC2)n1 (stereo unspecified),-2.759
CC(NC(=O)NCCCn1cncn1)c1ccc(C(F)(F)F)cc1 (stereo unspecified),0.8305
O=C(NCCCNc1ccc(C(F)(F)F)cn1)c1ccc(F)cc1Br,-0.6909
CCOc1ccc(C(=O)CCC(=O)NCCc2nncn2CC)cc1C,-1.917
N#Cc1cccc(CNC(=O)C2=NN(c3ccccc3)C(=O)CN2)c1,-3.148
Cc1nc2c(c(NCCNC(=O)C(C)C)n1)Cc1ccccc1OC2,8.775
COc1ccc2cc(CN(C)C(C)c3nc(C(C)(C)C)no3)ccc2c1 (stereo unspecified),1.753
N#CC1(NC(=O)Cc2cc(Cl)c3c(c2)OCCO3)CCC1,14.09
CCCc1nc(CN2CCCN(Cc3nccn3C)CC2)no1,2.072
CC(C)n1nnnc1-c1ccc(NC(=O)N(C)CCN(C)C)cc1F,3.982
Cc1ccc(O)c(CNc2cccc(CN3CCSCC3)c2)n1,-0.7061
CCC[C@@H]1CN(Cc2cc3c(cc2OC)OCO3)C[C@H]1C(=O)O,3.598
O=C(Cn1ccc2ccc(Br)cc21)NCc1ccc(C(=O)O)cc1,9.135
CC(C)Oc1ccc(C(=O)NCc2ccc3c(c2)CCCN3C)cn1,0
O=C(NCc1ccnc(-n2cccn2)c1)C1CC(=O)N(CC2CC2)C1 (stereo unspecified),1.49
CS(=O)(=O)N1CCCC12CCCN(S(=O)(=O)c1cccc(F)c1)C2 (stereo unspecified),3.936
O=C(CCCc1ccccn1)N1CCCC1c1noc(C2CC2)n1 (stereo unspecified),0.9505
CC1CN(S(=O)(=O)c2ccc(C(=O)NCC(F)F)cc2)CCCO1 (stereo unspecified),7.594
CC[C@@]1(O)CCN(C(=O)c2ccc(OC(F)F)cc2)C[C@H]1O,0.7543
Cc1nc(CCN(C)C(=O)CN2CCCCCC2)no1,2.55
CN(C)[C@@H]1CN(C(=O)c2cc3ccc(F)cc3[nH]2)C[C@H]1O,0.5407
Cc1cnc(N2CCC3(CC2)CN(Cc2cccs2)CCO3)nc1,2.495
COc1ccc(F)cc1CN1CCN(Cc2nccn2C)C(C)C1 (stereo unspecified),2.836
Cc1csc(CCNC(=O)C2CCN(CC(N)=O)CC2)n1,1.727
O=C(NC[C@@]1(COc2cnccn2)C[C@@H](O)[C@@H](O)C1)C1CCCC1,5.598
NC(=O)CN1CCCC(CCCc2ccccn2)(C(N)=O)C1 (stereo unspecified),4.685
COc1ccc(S(=O)(=O)N2CCC(S(C)(=O)=O)CC2)cc1C,1.522
Cc1cn(CC(=O)NC2CCC(C(=O)O)CC2)c2ccccc12 (stereo unspecified),1.565
Cc1nnc(NC(=O)NCC(C)N2CCOCC2)s1 (stereo unspecified),10.13
CCOC(=O)CNC(=O)C1OC(c2ccccc2)=NN1C(C)=O (stereo unspecified),1.435
Cc1cnc(N(C)Cc2cnc3ccccc3n2)nc1N(C)C,8.714
CCc1nnc2n1CCN(C(=O)c1cc3ccc(F)cc3nc1C)C2,2.121
CC(C)N(C)CC(=O)N1CCCC(n2ccnc2)C1 (stereo unspecified),-0.2637
COc1ccc(Br)c(NC(=O)NCc2ncnn2C)c1,-4.898
Cc1nn(C)cc1C(C)Nc1ncc(C(N)=O)cc1Cl (stereo unspecified),3.551
O=C(Nc1cccnc1)[C@H]1C[C@H]2OCC[C@H]2N(C(=O)c2ccsc2)C1,8.407
CC(=O)NCCC1CCCCN1S(=O)(=O)c1ccc2ccccc2c1 (stereo unspecified),2.145
COCCCC1(C(=O)O)CCCN(Cc2cc3c(cc2C)OCCO3)C1 (stereo unspecified),3.218
NC1(c2nc(C(F)(F)F)cc(=O)[nH]2)CCCCC1,10.09
CCOC(=O)C1(Cc2cccc(OC)c2)CCN(Cc2ncc[nH]2)CC1,10.29
Cc1cccc(-c2nccnc2C2CCCN(C)C2)c1 (stereo unspecified),1.557

6 of the entries, repeated:

{"compound": "O=C(Cn1ccc2ccc(Br)cc21)NCc1ccc(C(=O)O)cc1", "effect": 9.135}
{"compound": "O=C(NC[C@@]1(COc2cnccn2)C[C@@H](O)[C@@H](O)C1)C1CCCC1", "effect": 5.598}
{"compound": "COc1ccc(S(=O)(=O)N2CCC(S(C)(=O)=O)CC2)cc1C", "effect": 1.522}
{"compound": "CCc1nnc2n1CCN(Cc1ccc3c(c1)OCCO3)C2", "effect": 2.292}
{"compound": "Cc1nn(C)cc1C(C)Nc1ncc(C(N)=O)cc1Cl", "stereo": "stereo unspecified", "effect": 3.551}
{"compound": "COCCC1(CNC(=O)NC2CCCN(C)C2)CC1", "stereo": "stereo unspecified", "effect": -0.5682}